For 113 substances, growth estimate results are on record in the supplement of paper PMC5949888.

Most values lie at the floor of the assay. Slopes are relative: functional sequences can read slightly below zero.

The data set deals with Saccharomyces cerevisiae PS128 hsf1 delta, HSF1(1-493) fusion. The experiment in a line: growth estimate (transactivation domain function in HSF1 fusion, heat-shock survival) (a.u. (slope of normalised read count over time)); higher = stronger growth at 37°C, i.e. more transactivation activity. To be noted: library: random library. As to the method: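 Random 60-nt DNA library encoding peptides of up to 20 aa, fused to the C-terminus of yeast HSF1 residues 1-493 (C-terminal TAD deleted) and expressed from the native HSF1 promoter on a CEN plasmid in hsf1-deleted S. cerevisiae PS128. Cells were selected at 37°C on -trp 5-FOA plates for 0, 2, 4, 6 and 8 days and amplicons were sequenced. Growth estimate is the slope of a robust linear fit of total-sum-normalised read counts (normalised to the first time point) over time, using at least 2 replicates. Sequences are classed functional (TAD activity) above a threshold of -0.13, set from stop-codon control sequences.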
Consider LVGTKIRGL, for which the growth estimate was under -0.25.
With TSETGLM, the growth estimate was under -0.25.
For the substance VRVGDDCAVVPTLLRIARCQ, the growth estimate was under -0.25.
Consider RSHQVGIRNSKTVCAQRCVR, for which the growth estimate is under -0.25.
SSVEHVVRTTTDSQGSPIPP: the growth estimate is under -0.25.
Next, MHYGCIVASMR: under -0.25; WQAFTNKIQACGLCPIAVRF: under -0.25.
Consider RVRRTSTNEPDRLDSDVRQC, for which the growth estimate is under -0.25.
Consider TFLLSGQVRGGPGAVDRGLE, for which the growth estimate is under -0.25.
Next, LMYCLGTSIVGMRFASHLCS: -0.246; TGRDEGGRDRIRLFRFNV: under -0.25.
Consider KVVLSHQRNKYYLPF, for which the growth estimate is under -0.25.
Next, PRYLAGYPDSYLHRL: under -0.25; SHGRRVEERA: under -0.25; NKLRSVPSVGSVFLAHCWLH: under -0.25.
KYG: the growth estimate was under -0.25.
With NFSGPSEVTLSAQGLASKAQ the figure was -0.219; with WAG, under -0.25.
With TRDG the figure was under -0.25; with CGHSELPCVFDMSDIAV, under -0.25; with YWTI, under -0.25.
Next, HVGRSGNDGVPKNPIGSRGA: under -0.25; EWASSRQLGFCRCASCRGVC: -0.199.
With TCRQPGGHTLALPPVDFCQV, the growth estimate is under -0.25.
With VSVDAKGGSPVLPWYLRGAH the figure was under -0.25; with ERMRLHYDTRV, under -0.25; with KKVDSMRWATLMRTLYETTR, under -0.25.
Take ASPLCTSVQRTHMSRGDFTA: the growth estimate is under -0.25.
FGRWDGTIPVISNLGIHGPP: the growth estimate is under -0.25.
With SRGWQSCGIILAGFCCSSAA the figure was under -0.25; with TRMATSSPIVLRAPNIIGNA, under -0.25.
With HFL the figure was under -0.25.
For the substance GTYVVLFE, the growth estimate was under -0.25.
On to QNFEFSRVLTISDVSGVRVL, for which the growth estimate is under -0.25.
In the case of RWEAPSGPISDIMPGRQACS, the growth estimate is under -0.25.
Next, LFLWNLLCYEVSGDRCASVF: -0.248; PCDAADPSGNLGFLLAHIGL: under -0.25; ILER: under -0.25.
Next, IFLR: under -0.25; STERTVGRIRLEESLLFYPL: 0.023; GVNGSPGNFGLVKPYATLLA: under -0.25.
With WVSNVRP the figure was under -0.25.
Regarding GVLVLGSGRRLKKVYVWSSV, the growth estimate was under -0.25.
Consider SVRVWECALAKYFSGLSFIG, for which the growth estimate is under -0.25.
With KRRCVMVDVMDGPYGDRTGA the figure was under -0.25; with VTRTNLRRQGLDATGCTAIS, under -0.25.
With DWNF the figure was under -0.25.
As for GYWLCPRNLAW, the growth estimate is under -0.25.
As for LSWAVTDVYCTERNISSIVR, the growth estimate is under -0.25.
Take TERCAWVGGCGCRKCRIANP: the growth estimate is under -0.25.
With VSSRGIFQTYQAADSQTVSR the figure was under -0.25; with ERGRSGCTHSDRTSRCPMLS, under -0.25.
With MDFFIASLGPLSTHKLCNRD the figure was under -0.25; with SYPLNLKDNRRL, under -0.25; with RKDL, under -0.25.
With SRRSKTFYRLEALNTDQSTL the figure was under -0.25; with RNLSRGLSLHGDPKDTLLWS, under -0.25; with LMESFTCTAVSVGR, under -0.25.
For the substance PHSAQRGE, the growth estimate was under -0.25.
With AHRQDSERQNLSTTKRGRPF the figure was under -0.25.
ITSIHGLSSVICFVVKPAHF: the growth estimate was under -0.25.
With PRSTHDKRGWAPARGNMGCC the figure was under -0.25; with MELKDFGENAQGLSPIGKSY, under -0.25; with DTRVCQN, under -0.25.
Next, VSIPLNSSIPS: under -0.25; QLLSGDGSVDSGRLVRDES: under -0.25; RLRGSSVDLGSMRSQEIYRP: under -0.25.
Next, SRLFDGLMSRQAAVLR: under -0.25.
For HKGRRGLLVARAVSWPVAQQ, the growth estimate was under -0.25.
With SVHVYI the figure was under -0.25; with YAGDLFPFLERGIGVTFASL, under -0.25.
Regarding PLVPSLVVSGRSLLSHTLGN, the growth estimate is under -0.25.
With GPNRPHAW, the growth estimate is under -0.25.
With RQLT the figure was under -0.25.
On to LLQKTP, for which the growth estimate is under -0.25.
SRFNKSCDGTQIDLRHWVTP: the growth estimate is under -0.25.
With KTMFGHECPGQPLLRGRHGY the figure was under -0.25; with WGRAMTYVE, under -0.25; with RKWLRGRGVVPPIVFE, under -0.25.
With AGHHPWGATTRCIVQSLRHG the figure was under -0.25; with HAGSSCTMGDVRFSQVKHIG, under -0.25.
In the case of VLGID, the growth estimate is under -0.25.
Next, LGRRIATIWGQNTIRP: under -0.25.
Take IFNSRSGVRESH: the growth estimate is under -0.25.
With LTAGNERIEVYGHPTSPDRG the figure was under -0.25.
Next, ALHKGAGSCSLPAPVGRSAS: under -0.25; AVGAGAGHAFRHQRSSARSG: under -0.25.
Regarding KVLFPTT, the growth estimate is under -0.25.
For the substance PKATGAIAKSPVAGVEGPRT, the growth estimate is under -0.25.
Take RTDNITRHGSWNY: the growth estimate was under -0.25.
Regarding AGSDKARFYQ, the growth estimate is under -0.25.
Next, PVLQCHGIARMAGEVG: under -0.25; DGQRRLLCNLD: under -0.25; PQFRVSASASSSAVGARRGP: under -0.25.
Next, PRLFDDMA: under -0.25; VSAGRKILTQEVVRV: under -0.25; CWGQ: under -0.25.
Next, GSASNIGCGEPSYHGIPRCM: under -0.25; RGSSDGPV: under -0.25.
Consider FSESSQLQLQSCAVKTRLPC, for which the growth estimate is under -0.25.
With VRGSLSKAERGPLTGI the figure was under -0.25.
Regarding QNVTTLAGNGCEKKFFIFGP, the growth estimate is under -0.25.
Next, KRRHLHPMLSHLFRKAA: under -0.25; FGLHASRTGINWIVGARPRG: -0.246; FVAYR: under -0.25.
On to VRHRSQDPVYVEAGGDGDLS, for which the growth estimate was under -0.25.
Regarding FRLPQVAQ, the growth estimate was under -0.25.
ITNVFPATQKACALLVSSEA: the growth estimate was under -0.25.
VRTRCATWCCATHIDKCYSV: the growth estimate is under -0.25.
Next, HTSRRLAIYALGGSLGALSL: under -0.25; RGCSAD: under -0.25.
For the substance SEGS, the growth estimate was under -0.25.
With MNAIIQSGVGHERHQQALHM the figure was under -0.25.
